Among all 140,000 compounds or so, about 4,300 (3.1%) were called active. The inconclusive results got no clear call from the source; some entries with a clear call stand among them for comparison.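 How the source made its calls: active means readout at or below -70, meaning at least 70% loss of cells showing the perinucleolar compartment, a nuclear body marking cancer cells; inconclusive means readout between -30 and a set limit; inactive means the rest.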
Assay: High Content Assay for Compounds that inhibit the Assembly of the Perinucleolar Compartment;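 further: plate controls were DMSO wells for no effect and camptothecin positive control wells for full effect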
Conditions: PC3M PTB-GFP, PNC prevalence imaging, 16 h; at 10 µM; active compounds read low
Procedure, shortened: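 Compounds are pinned in duplicate onto adhered PC3M cells stably expressing GFP-tagged PTB and incubated 16 h at 37 C. Cells are then fixed, nuclei stained with Hoechst, and PNC-positive cells counted.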

| Compound | activity change (PNC), negative = inhibition |
| --- | --- |
| Cc1ccc(Nc2nc(-c3c(C)nc4ccccn34)cs2)cc1 | inconclusive: -62.9% |
| COc1ccc(-c2noc(CN(C)S(=O)(=O)c3ccc(Cl)cc3)n2)cc1OC | active: -92.2% |
| CCCOc1ccc(CN(CCC#N)C(=S)NC(=O)c2ccccc2)cc1 | inconclusive: -31.8% |
| COc1ccccc1NC(=O)NS(=O)(=O)c1ccc(C)cc1 | active: -110% |
| O=C(CC(NS(=O)(=O)c1ccc(Cl)cc1)c1ccco1)NCc1cccnc1 (centres undefined) | inconclusive: -50.1% |
| CC(=O)Nc1sc(N/N=C\c2ccccc2Cl)nc1-c1cccs1 | inconclusive: -37.8% |
| CCN(CC)C(=O)c1sc2nc(-c3cccs3)cc(-c3ccc(Cl)cc3)c2c1N | inactive: 48.6% |
| CC(=O)/C(=N/Nc1ccccc1)Sc1nnc(CCc2ccccc2)n1-c1ccccc1 | inconclusive: -42.3% |
| O=C(CSc1ccc2nnc(-c3ccncc3)n2n1)N1CCc2ccccc21 | inconclusive: -47.8% |
| S=C(NCc1ccccn1)Nc1ccccc1 | inactive: -16.7% |
| CCOCCCNC(=O)C1CCC(=O)N1CCc1ccccc1 (centres undefined) | inconclusive: -32.8% |
| Cc1ccccc1N(C)C(=O)c1coc(=O)c2ccccc12 | inconclusive: -51.4% |
| CCOc1ccc(CNC(=S)NCc2ccc(OCC)cc2)cc1 | inconclusive: -37.3% |
| Nc1c(NCc2ccccc2)c2ccccc2oc1=O | inactive: 8.36% |
| COc1cc(NC(=O)c2nccnc2C(=O)O)cc(OC)c1 | inconclusive: -39.7% |
| O=C(CNC(=O)c1cccc(F)c1)N/N=C/c1cccc([N+](=O)[O-])c1 | inactive: 22.7% |
| Cc1c(NC(=O)CSc2ccc(Cl)cc2)cccc1-c1nc2cc(Cl)ccc2o1 | active: -113% |
| Cc1ccc(-n2nc3c(c2NC(=O)c2ccc4c(c2)OCO4)CSC3)c(C)c1 | inconclusive: -49.4% |
| O=P(OC1CCCCC1)(OC1CCCCC1)C(O)c1c(Cl)cccc1Cl (centres undefined) | inconclusive: -37.6% |
| CC(=O)c1cc(-c2ccccc2)n(CCC(=O)NC2CCCCCC2)c1C | inconclusive: -45.3% |
| O=C(C1CC1(c1ccccc1)c1ccccc1)N1CCOCC1 (centres undefined) | inconclusive: -69.6% |
| O=C(CN1CCOCC1)NN=C1CCCCCCCCCCC1 | inconclusive: -45.6% |
| CCOc1ccccc1N/C=C/C(=O)C(C)(C)C | inactive: 40.3% |

Rewritten with tabs: entries from further up.
Compound	activity change (PNC), negative = inhibition
COc1ccc(-c2noc(CN(C)S(=O)(=O)c3ccc(Cl)cc3)n2)cc1OC	active: -92.2%
Cc1ccccc1N(C)C(=O)c1coc(=O)c2ccccc12	inconclusive: -51.4%

(continued)

| Compound | activity change (PNC), negative = inhibition |
| --- | --- |
| COc1ccc(/C=C2\SC(=S)N(NC(=O)c3csc4c3CCCC4)C2=O)cc1 | inactive: -5.81% |
| CCOC(=O)C1CCCN(S(=O)(=O)c2ccc(Br)c(OC)c2)C1 (centres undefined) | inconclusive: -67.4% |
| CCOC(=O)C1NN=C(C(=O)c2ccc(C)cc2)C1c1ccc(C)cc1 (centres undefined) | inconclusive: -48.9% |
| Cc1sc2ncnc(N=Nc3c(O)[nH]c4ccccc34)c2c1C | inconclusive: -58.2% |
| CCOC(=O)C1CCCN(S(=O)(=O)c2ccccc2)C1 (centres undefined) | inactive: 17.5% |
| CCN(CC)c1ccc(C=Nc2cc(C)ccc2C)c(O)c1 | inactive: 7.96% |
| C=CCNC(=O)/C(=C\c1cccc([N+](=O)[O-])c1)NC(=O)c1ccccc1 | inactive: 48.8% |
| C=CCSc1nnc(NC(=O)c2cccc(S(=O)(=O)N3CCOCC3)c2)s1 | inactive: -27.8% |
| Cc1cccn2cc(CCNS(=O)(=O)c3ccc4c(c3)OCCO4)nc12 | inconclusive: -36.9% |
| Cc1ccc(NC(=O)c2ccc3c(c2)OCCO3)cc1S(=O)(=O)Nc1cccc(Cl)c1 | inactive: -17.8% |
| COC(=O)N/N=C/c1ccc(OCCSc2ccc(Cl)cc2)c(OC)c1 | inconclusive: -31.2% |
| COc1ccc(NC(=O)c2cc(CC(C)C)on2)cc1OC | inconclusive: -36.6% |
| Cc1ccc(N=C2C(=S)N(c3ccc(C)cc3)C(=N)N2/N=C/c2ccc(Cl)cc2)cc1 | inactive: -25.2% |
| CC(=O)Nc1ccc(S(=O)(=O)NC2(C(F)(F)F)C(=O)Nc3c2c(=O)n(C)c(=O)n3C)cc1 (centres undefined) | inconclusive: -49.4% |
| Cc1ccc(S(=O)(=O)N2CCN(Cc3nc4sc(C)c(C)c4c(=O)[nH]3)CC2)cc1 | inactive: -9.91% |
| Nc1ccc2oc(-c3cccc(Br)c3)nc2c1 | inconclusive: -34% |
| Cn1c(SCC(=O)NC2CCCC2)nnc1-c1ccc(S(=O)(=O)N2CCOCC2)cc1 | inconclusive: -38.7% |
| C#CCOCCOCCOCCNc1nc(N2CCN(C(=O)[C@H](C)n3cc(CCCN=C(N)N)nn3)CC2)nc(N2CCN(C(=O)[C@H](C)n3cc(CCCN=C(N)N)nn3)CC2)n1 | inactive: -3.98% |
| CCOC(=O)C/C(C)=N/NC(=O)C1CC1(c1ccccc1)c1ccccc1 (centres undefined) | inconclusive: -34.3% |
| O=c1cc(-c2ccccc2Cl)oc2ccc([N+](=O)[O-])c(O)c12 | inactive: 43.2% |
| COc1cc(NC(=O)C2=C(N3CCOCC3)/C(=C\c3ccc(Cl)cc3Cl)CC2)cc(OC)c1OC | inactive: -4.76% |
| CCc1nnc(NC(=O)CN2C(=O)/C(=C/c3cc(OC)c(OC)c(OC)c3)SC2=S)s1 | inactive: 11.4% |
| COc1ccnc(N2CCN(c3ccccc3)CC2)c1C#N | inconclusive: -61.2% |

| Compound | activity change (PNC), negative = inhibition |
| --- | --- |
| COc1ccc(NC(=O)C2CCCN2C(=O)NCc2ccccc2)cc1OC (centres undefined) | inconclusive: -35% |
| Cc1ccccc1NC(=O)CCC(=O)N/N=C/c1ccncc1 | inactive: -16.7% |
| S=C(NC1CCCCC1)N1CCN(c2ccccn2)CC1 | inconclusive: -49.9% |
| Cc1cc(C)cc(NC(=O)CN(Cc2ccccc2)S(C)(=O)=O)c1 | inconclusive: -45.8% |
| O=C(NCc1ccco1)c1ccc(S(=O)(=O)N2CCOCC2)cc1 | inactive: 106% |
| CCOC(=O)c1cn[nH]c1N | inconclusive: -43.1% |
| Cc1c(C(=O)O)sc2ncnc(N3CCCCC3C)c12 (centres undefined) | inconclusive: -69.2% |
| CCOc1cc(/C=N/n2cnnc2)ccc1OCC(=O)Nc1ccccc1OC | inactive: 11.6% |
| CCN(CC)c1ccc(C2C(C(=O)OC(C)C)C(=O)CC(C)(O)C2C(=O)OC(C)C)cc1 (centres undefined) | active: -113% |
| CCOC(=O)c1c(-c2cccs2)csc1NC(=O)CSc1ncn[nH]1 | inconclusive: -58.6% |
| Cc1cccc(NC(=O)NC(=S)NC(=O)c2ccccc2)c1 | inconclusive: -35.9% |
| CCCCC(=O)Nc1nc(C)c(-c2csc(Nc3ccccc3OC)n2)s1 | inconclusive: -30.5% |
| COc1cc(NC(=O)CCNC(=O)Cn2cnc3ccccc3c2=O)cc(OC)c1OC | inconclusive: -50% |
| COc1ccc(C(=O)Nc2cccc(C)c2)cc1S(=O)(=O)N1CCOCC1 | inactive: -20.8% |
| Cc1cccc(NC(=O)Cn2cnc3c(cnn3-c3ccc(F)cc3)c2=O)c1C | inconclusive: -53.6% |
| CCc1c(C)nc2ccc(Br)cc2c1Cl | inactive: 36.2% |
| COc1cc(OC)cc(C(=O)N2CCN(c3ccccc3F)CC2)c1 | inconclusive: -40.2% |
| C/C(Cl)=C\Cn1c(Nc2ccc(C)cc2)nc2c1c(=O)n(C)c(=O)n2C | active: -95.3% |
| CN=c1scc(-c2cccs2)n1/N=C/c1ccc(O)c(O)c1O | inconclusive: -46.3% |
| O=C(CNC(=O)C1CCCCC1)Nc1ccccc1Cl | inconclusive: -78.6% |
| CCOC(=O)C1=C(C)Nc2nc3ccccc3n2C1c1ccncc1 (centres undefined) | inconclusive: -35.4% |
| CCc1ccc(CCC(=O)Nc2ncc(Cc3ccccc3Cl)s2)o1 | active: -91% |
| COc1cccc(C2c3c(oc4ccc(F)cc4c3=O)C(=O)N2CCN2CCOCC2)c1OC (centres undefined) | inactive: 53.9% |

| Compound | activity change (PNC), negative = inhibition |
| --- | --- |
| O=C(NCCN1CCOCC1)C1CCC(=O)N1Cc1ccccc1Cl (centres undefined) | inconclusive: -35.3% |
| COC(=O)C(C(=O)Nc1ccccc1C)C1CCCC1 (centres undefined) | active: -83.4% |
| O=C1[C@H]2[C@@H](C(=O)N1c1cccc3ccccc13)C1(C(=O)c3ccccc3C1=O)N1CCC[C@@H]21 | inconclusive: -41.1% |
| CN(Cc1ccccc1)C(=O)c1cccc(N2C(=O)NC3CC2(C)Oc2ccccc23)c1 (centres undefined) | inconclusive: -60.6% |
| Oc1c(Cl)cc(Cl)cc1Sc1cc(Cl)cc(Cl)c1O | inactive: 31.8% |
| CC1(Br)C2CCCC1C2S(=O)(=O)c1ccccc1 (centres undefined) | inconclusive: -44.9% |
| O=C(Oc1ccc2c(c1)C(=O)c1ccccc1CO2)c1ccccc1 | inconclusive: -77.3% |
| Cc1cccc2cc(CN(Cc3ccccc3)C(=O)c3cccc(F)c3)c(Cl)nc12 | inactive: 10.4% |
| CCOC(=O)CNc1nc(C(C)(C)C)nc2c1nnn2Cc1ccccc1Cl | inconclusive: -39.7% |
| COc1cccc(C(=O)c2c[nH]c(C(=O)NCc3ccco3)c2)c1 | inconclusive: -54.3% |
| COc1ccc(/C=N/c2nc3ccccc3n2C)cc1OC | inconclusive: -31.7% |
| CCc1ccc(NC(=O)CSc2nnc(-c3n[nH]c4ccccc34)n2-c2ccccc2)cc1 | inconclusive: -67.5% |
| O=C(NNC(=S)Nc1ccc(F)cc1)c1ccccc1OC(F)F | inconclusive: -31.4% |
| COc1cc(/C=C2\N=C3CCCCCN3C2=O)ccc1O | inconclusive: -42.8% |
| Cc1ccccc1C(=O)N/N=C/c1ccc(OCC(=O)N2CCCCC2)cc1 | inconclusive: -54% |
| Cc1cccc(-c2nnc3n2N=C(c2ccc(Br)cc2)CS3)c1 | inactive: 9.03% |
| COc1cccc(-n2nnnc2SCC(=O)Nc2nc3c(s2)CCCC3)c1 | inconclusive: -31.1% |
| CC1=C(C(N)=O)C(c2ccccc2F)NC(=O)N1 (centres undefined) | inconclusive: -43.4% |
| N#Cc1nc(-c2ccc(Cl)cc2)oc1NCCc1ccccn1 | inconclusive: -65.9% |
| O=C(NCc1ccccc1Cl)c1cccc(NC(=O)c2ccccc2)c1 | inconclusive: -32.9% |

Reference: PubChem BioAssay AID2417 (National Center for Advancing Translational Sciences (NCATS), 2010)
